Experimental data published in the supplement of paper PMC11732987, “Enantioselective OTUD7B fragment discovery through chemoproteomics screening and high-throughput optimisation” (Communications Chemistry, 2025).
The list shows a part of the results. The data scatter; read single values as rough.

Protein sequences, listed by entry. Tags and fused reporters are not part of them. Lines headed by an entry give the natural chain unless they say otherwise; changes in a name come on top. Residues count along the entry.
UniProt P21283, whole entry, looked up: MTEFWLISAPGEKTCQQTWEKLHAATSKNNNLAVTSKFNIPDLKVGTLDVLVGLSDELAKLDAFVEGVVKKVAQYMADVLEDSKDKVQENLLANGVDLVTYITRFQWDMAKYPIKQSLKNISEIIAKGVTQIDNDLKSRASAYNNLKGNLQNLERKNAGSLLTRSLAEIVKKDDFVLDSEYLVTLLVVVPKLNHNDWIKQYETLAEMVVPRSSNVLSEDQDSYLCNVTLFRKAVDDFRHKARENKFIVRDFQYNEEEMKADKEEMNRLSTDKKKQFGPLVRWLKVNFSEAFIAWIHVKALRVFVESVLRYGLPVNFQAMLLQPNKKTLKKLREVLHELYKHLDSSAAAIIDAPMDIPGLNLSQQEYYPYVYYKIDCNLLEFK
UniProt Q9P281, 2572-2591: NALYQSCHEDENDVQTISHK
UniProt P38606: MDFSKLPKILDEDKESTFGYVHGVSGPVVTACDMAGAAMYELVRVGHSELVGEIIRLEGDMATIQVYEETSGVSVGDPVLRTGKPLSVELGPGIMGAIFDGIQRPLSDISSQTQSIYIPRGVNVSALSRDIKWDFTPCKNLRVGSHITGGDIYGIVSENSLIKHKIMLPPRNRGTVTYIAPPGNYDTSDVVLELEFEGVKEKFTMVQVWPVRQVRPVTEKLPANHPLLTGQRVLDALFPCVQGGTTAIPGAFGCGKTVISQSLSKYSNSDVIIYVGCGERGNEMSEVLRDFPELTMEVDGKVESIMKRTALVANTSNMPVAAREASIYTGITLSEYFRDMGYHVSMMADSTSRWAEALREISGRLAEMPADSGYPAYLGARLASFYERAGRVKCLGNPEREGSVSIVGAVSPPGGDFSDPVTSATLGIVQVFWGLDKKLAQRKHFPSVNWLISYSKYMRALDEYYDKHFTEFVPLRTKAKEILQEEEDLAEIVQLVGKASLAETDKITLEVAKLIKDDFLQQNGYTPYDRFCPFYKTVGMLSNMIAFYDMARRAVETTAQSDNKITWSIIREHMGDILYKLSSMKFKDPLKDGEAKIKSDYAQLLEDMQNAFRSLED
UniProt Q6W2J9: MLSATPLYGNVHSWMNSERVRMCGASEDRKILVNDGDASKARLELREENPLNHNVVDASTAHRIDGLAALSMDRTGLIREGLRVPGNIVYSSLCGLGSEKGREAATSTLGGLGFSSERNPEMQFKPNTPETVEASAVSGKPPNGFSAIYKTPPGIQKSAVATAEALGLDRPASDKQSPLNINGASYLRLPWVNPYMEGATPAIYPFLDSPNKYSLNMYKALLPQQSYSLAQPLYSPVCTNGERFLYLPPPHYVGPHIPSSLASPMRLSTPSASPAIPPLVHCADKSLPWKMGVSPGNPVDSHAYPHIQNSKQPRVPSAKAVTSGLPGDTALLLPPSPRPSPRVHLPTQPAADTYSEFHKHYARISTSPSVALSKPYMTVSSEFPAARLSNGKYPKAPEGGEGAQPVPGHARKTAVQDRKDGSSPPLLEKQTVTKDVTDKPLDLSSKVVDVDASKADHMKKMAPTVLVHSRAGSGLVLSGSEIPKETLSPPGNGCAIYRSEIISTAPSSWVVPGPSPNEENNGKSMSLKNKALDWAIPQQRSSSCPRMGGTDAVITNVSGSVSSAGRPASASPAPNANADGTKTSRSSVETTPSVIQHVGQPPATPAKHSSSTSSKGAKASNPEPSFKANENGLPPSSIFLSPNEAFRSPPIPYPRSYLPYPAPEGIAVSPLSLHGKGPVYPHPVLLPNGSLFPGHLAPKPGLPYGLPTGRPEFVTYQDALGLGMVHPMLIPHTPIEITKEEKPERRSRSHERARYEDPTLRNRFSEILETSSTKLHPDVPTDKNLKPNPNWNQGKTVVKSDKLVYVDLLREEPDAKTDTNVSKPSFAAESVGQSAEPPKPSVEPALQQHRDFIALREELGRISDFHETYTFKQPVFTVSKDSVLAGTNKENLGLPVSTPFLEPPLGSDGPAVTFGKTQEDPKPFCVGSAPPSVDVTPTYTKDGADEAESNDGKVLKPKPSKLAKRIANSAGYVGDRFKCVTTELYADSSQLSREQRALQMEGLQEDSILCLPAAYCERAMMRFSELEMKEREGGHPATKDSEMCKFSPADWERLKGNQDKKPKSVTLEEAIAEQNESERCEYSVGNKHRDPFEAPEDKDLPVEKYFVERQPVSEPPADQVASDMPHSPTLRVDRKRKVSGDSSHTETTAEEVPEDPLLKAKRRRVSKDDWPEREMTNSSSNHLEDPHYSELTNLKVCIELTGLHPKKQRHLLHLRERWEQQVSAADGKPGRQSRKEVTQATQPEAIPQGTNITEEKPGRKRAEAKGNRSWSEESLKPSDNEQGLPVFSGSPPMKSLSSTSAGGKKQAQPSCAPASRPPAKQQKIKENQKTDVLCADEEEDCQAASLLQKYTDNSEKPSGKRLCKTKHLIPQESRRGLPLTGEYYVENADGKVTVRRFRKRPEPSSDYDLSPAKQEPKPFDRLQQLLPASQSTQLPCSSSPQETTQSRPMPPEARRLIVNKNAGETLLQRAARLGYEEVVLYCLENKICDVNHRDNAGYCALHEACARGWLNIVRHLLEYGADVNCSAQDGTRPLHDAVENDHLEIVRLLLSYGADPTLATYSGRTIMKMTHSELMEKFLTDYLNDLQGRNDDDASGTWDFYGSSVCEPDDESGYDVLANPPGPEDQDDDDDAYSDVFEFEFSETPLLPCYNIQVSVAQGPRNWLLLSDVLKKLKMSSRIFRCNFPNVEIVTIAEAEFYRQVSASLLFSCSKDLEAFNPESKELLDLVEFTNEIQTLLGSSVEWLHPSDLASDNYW
UniProt Q8WYN0: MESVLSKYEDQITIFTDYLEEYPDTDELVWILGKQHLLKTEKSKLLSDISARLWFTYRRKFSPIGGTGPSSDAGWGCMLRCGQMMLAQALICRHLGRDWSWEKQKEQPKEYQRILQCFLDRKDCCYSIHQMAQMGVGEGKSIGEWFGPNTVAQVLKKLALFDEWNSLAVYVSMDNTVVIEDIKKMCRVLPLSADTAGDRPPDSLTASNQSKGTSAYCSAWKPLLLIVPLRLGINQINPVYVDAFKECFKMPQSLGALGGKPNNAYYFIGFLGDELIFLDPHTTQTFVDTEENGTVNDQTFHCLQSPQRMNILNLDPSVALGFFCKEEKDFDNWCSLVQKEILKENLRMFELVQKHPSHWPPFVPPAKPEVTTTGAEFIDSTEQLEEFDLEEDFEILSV
UniProt Q6VMQ6, 101-124: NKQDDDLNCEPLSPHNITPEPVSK
UniProt P20020: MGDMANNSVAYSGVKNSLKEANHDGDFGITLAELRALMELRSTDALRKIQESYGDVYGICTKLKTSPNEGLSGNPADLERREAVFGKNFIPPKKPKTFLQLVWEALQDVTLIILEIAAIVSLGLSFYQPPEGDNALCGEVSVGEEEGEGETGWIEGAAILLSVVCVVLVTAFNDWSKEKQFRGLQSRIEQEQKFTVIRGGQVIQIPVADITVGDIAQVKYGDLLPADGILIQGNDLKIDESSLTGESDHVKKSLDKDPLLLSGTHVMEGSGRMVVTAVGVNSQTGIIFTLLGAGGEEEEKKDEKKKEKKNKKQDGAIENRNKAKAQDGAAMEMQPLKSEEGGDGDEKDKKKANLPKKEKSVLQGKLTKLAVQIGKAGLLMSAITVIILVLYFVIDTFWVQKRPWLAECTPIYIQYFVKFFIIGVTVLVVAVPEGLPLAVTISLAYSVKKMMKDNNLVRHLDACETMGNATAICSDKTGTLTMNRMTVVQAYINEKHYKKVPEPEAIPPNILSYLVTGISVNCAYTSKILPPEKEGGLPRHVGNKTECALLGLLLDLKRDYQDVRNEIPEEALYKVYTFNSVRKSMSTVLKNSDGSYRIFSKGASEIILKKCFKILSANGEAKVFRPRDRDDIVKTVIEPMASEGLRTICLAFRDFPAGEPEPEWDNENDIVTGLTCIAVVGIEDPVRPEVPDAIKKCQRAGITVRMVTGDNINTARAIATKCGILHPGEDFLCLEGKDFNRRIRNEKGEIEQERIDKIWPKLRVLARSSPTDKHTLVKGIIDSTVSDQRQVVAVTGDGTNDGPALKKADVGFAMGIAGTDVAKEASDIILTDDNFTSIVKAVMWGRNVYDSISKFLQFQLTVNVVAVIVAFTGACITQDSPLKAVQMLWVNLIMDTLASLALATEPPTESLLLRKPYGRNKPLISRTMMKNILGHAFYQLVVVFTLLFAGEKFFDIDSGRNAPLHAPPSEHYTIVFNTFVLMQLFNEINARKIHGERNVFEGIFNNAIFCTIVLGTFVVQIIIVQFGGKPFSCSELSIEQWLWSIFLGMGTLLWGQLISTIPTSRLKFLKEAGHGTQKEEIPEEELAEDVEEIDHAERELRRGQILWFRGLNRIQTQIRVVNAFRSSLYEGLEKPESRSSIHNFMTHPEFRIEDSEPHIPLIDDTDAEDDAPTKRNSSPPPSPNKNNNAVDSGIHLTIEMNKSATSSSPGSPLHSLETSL
UniProt Q6QNY0: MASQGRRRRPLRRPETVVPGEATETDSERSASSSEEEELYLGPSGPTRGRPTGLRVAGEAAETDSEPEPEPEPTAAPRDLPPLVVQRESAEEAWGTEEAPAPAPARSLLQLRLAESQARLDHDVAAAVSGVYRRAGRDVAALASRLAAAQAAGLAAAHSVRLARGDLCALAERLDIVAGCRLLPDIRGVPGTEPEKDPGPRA
UniProt Q12797: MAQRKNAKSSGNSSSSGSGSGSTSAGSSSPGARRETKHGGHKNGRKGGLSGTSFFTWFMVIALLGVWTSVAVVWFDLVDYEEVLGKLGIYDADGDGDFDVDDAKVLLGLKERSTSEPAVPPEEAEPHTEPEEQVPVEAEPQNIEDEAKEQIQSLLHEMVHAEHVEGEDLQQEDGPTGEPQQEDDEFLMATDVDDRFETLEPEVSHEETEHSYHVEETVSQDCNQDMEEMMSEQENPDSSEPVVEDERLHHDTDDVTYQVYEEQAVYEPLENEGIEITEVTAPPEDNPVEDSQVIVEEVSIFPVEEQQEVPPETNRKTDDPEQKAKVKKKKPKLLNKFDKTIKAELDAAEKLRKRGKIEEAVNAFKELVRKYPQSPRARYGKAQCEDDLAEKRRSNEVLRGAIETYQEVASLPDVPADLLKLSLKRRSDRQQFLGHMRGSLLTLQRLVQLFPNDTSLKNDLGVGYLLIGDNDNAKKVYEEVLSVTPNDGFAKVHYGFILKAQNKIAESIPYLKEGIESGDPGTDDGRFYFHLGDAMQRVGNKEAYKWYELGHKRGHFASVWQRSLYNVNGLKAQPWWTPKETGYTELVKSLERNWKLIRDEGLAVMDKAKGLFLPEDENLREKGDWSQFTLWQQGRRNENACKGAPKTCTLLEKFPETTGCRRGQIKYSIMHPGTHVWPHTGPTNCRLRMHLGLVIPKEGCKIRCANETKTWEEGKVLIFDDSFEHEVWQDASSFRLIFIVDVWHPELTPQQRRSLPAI
UniProt Q8NBU5: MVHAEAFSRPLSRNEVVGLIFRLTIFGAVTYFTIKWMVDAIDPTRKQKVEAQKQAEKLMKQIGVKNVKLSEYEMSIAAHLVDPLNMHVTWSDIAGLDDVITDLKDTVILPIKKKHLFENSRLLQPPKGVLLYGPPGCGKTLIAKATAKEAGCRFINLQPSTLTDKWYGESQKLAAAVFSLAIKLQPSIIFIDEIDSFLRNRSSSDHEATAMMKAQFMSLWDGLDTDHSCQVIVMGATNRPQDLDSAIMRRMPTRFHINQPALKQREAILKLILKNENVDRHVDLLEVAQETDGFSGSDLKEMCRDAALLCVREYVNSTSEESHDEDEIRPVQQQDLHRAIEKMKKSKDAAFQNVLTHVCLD
UniProt Q9NSY1, 322-349: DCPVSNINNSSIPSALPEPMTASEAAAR
UniProt Q5T5X7: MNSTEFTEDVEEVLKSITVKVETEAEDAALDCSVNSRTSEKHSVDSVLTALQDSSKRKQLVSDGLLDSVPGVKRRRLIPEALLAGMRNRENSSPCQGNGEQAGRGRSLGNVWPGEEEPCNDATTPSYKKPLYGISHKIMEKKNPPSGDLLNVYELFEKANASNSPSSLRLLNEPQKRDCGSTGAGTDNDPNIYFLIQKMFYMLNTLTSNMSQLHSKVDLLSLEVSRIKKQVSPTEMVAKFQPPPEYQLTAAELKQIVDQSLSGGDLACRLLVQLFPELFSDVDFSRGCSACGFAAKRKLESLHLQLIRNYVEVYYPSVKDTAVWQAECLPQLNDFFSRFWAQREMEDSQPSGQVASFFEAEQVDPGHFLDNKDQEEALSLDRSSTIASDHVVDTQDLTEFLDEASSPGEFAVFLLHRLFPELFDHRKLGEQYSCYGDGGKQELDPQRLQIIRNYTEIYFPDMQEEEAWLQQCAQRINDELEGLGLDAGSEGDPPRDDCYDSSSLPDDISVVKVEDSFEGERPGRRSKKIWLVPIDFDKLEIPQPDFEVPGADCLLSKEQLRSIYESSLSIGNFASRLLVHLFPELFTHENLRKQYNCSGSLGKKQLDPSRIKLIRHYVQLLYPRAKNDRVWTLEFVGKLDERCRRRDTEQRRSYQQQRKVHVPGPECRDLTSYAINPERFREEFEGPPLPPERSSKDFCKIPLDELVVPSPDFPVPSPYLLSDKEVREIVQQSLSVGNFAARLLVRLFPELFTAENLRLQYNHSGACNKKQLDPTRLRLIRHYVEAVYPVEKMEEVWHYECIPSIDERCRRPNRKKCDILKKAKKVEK

How the values were obtained:
[1] = compound: ClCC(=O)N[C@@H]1CCCc2ccccc12; experiment: log2 mean competition ratio of IA-DTB cysteine labelling (DMSO/compound) (log2 ratio); higher = stronger cysteine engagement by compound; conditions: treatment time: 4 h, cell line lysate: HEK293T
Protocol: (§1)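 IA-DTB competitive cysteine chemoproteomics in HEK293T RIPA lysate. Lysates were treated with compound 29 or 30 at 50 or 200 µM for 4 h, then IA-DTB (500 µM, 1 h), trypsin-digested, NeutrAvidin-enriched and analysed by diaPASEF. Competition ratio = intensity DMSO / intensity compound (n=4 treated, n=64 DMSO); binding: mean log2 CR ≥ 1 and p ≤ 0.05 plus QC filters. Target is the cysteine site.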

[2] = compound: ClCC(=O)N[C@H]1CCCc2ccccc12; experiment: as above; conditions: treatment time: 4 h, cell line lysate: HEK293T
Protocol: as §1

Target	log2 mean competition ratio ([1]; 50 µM)	log2 mean competition ratio ([1]; 200 µM)	log2 mean competition ratio ([2]; 50 µM)	log2 mean competition ratio ([2]; 200 µM)
BBS2 C662	0.274	0.0491	0.0466	-0.066
ATP6V1C1 C376 (UniProt P21283)	-0.0491	-0.125	-0.476	0.0851
BLVRA C204	-0.251	-0.0875	-0.0663	-0.0969
BAHCC1 C2578 (UniProt Q9P281)	-0.09	-0.234	-0.265	-0.154
BCR C753 (UniProt P11274)	-0.0459	0.141	-0.0309	0.091
ATM C2112 (UniProt Q13315)	-0.101	0.0632	-0.259	0.115
ATP6V1A C277 (UniProt P38606)	-0.0852	-0.171	0.177	-0.197
BIRC6 C4443	0.0581	0.0243	-0.193	-0.0142
BCOR C23 (UniProt Q6W2J9)	-0.194	-0.148	-0.131	0.279
ATG4A C117 (UniProt Q8WYN0)	0.0484	0.0481	-0.31	-0.0811
BLM C901 (UniProt P54132)	0.407	0.0438	0.392	0.0909
ATF7IP C109 (UniProt Q6VMQ6)	-0.563	0.0582	-0.481	0.107
BAHD1 C703 (UniProt Q8TBE0)	-0.455	-0.419	-0.849	0.202
ATP2B1 C60 (UniProt P20020)	0.0638	0.0843	0.0544	0.0758
BLOC1S3 C168 (UniProt Q6QNY0)	0.253	-0.129	0.578	-0.0674
ASPH C384 (UniProt Q12797)	-0.276	0.16	-0.429	0.252
ATAD1 C137 (UniProt Q8NBU5)	0.462	0.14	0.613	0.119
BCKDHB C235 (UniProt P21953)	-0.142	-0.4	-0.412	-0.466
BMP2K C323 (UniProt Q9NSY1)	0.392	-0.301	0.255	-0.335
BEND3 C597 (UniProt Q5T5X7)	-0.251	0.237	-0.158	-0.0867
